In article PMC6373471:
No constants are given. Whether binding was seen depends on the method and setting. In cells and extracts the contact can be indirect. These calls come from enrichment with a bait or labelling near it, and not all partners need be listed. Blank lines part the entries; values can stand above or below the binder they belong to.

The chains behind the UniProt entries cited, without tags or fusion partners.
UniProt Q9SQI2: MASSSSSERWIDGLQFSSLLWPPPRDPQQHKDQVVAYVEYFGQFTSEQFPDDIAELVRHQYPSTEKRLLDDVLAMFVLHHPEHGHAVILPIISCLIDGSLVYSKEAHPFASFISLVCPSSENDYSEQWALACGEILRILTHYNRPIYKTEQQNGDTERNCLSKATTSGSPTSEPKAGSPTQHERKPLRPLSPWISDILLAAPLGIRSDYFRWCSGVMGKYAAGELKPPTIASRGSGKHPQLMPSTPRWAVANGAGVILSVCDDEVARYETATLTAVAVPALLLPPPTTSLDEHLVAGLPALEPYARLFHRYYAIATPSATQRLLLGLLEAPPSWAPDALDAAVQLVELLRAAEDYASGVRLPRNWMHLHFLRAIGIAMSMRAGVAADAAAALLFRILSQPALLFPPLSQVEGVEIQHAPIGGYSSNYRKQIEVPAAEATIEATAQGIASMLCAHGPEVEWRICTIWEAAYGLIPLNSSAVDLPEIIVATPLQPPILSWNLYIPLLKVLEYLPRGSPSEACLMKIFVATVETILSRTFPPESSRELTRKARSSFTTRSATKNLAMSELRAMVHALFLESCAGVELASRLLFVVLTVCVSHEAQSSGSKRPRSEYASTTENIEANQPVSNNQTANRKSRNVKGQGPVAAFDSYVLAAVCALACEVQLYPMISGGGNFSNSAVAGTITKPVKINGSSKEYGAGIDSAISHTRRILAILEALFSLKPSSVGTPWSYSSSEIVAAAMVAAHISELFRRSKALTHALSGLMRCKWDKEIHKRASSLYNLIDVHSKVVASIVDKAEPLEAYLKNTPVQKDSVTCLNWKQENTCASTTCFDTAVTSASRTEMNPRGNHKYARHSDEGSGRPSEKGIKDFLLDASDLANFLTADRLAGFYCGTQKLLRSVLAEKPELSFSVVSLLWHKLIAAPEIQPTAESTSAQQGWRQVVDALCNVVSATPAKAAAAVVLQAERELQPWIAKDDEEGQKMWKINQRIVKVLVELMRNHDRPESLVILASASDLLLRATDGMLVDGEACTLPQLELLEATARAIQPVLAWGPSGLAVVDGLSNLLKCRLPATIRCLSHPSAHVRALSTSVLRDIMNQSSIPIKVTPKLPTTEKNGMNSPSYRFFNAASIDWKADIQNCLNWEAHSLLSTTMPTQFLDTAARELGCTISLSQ

Molecular target: GIGANTEA with C-terminal 3xFLAG-6xHis tag (GI‐3F6H) (Arabidopsis thaliana) (UniProt Q9SQI2)
Assay: affinity purification with mass spectrometry; time series study: tandem affinity purification (FLAG and His tags) of GI-3F6H from rosettes grown in short days, six time points plus ZT31; on-bead digest, label-free quantitation; WT plants as control

B3: TCP‐1/cpn60 chaperonin (AT3G03960) (protein, UniProt Q94K05 1-549)
chain: MVGMSMQPYGIQSMLKEGYRHLSGLDEAVIKNIEACKELSTITRTSLGPNGMNKMVINHLDKLFVTNDAATIVNELEIQHPAAKLLVLAAKAQQEEIGDGANLTISFAGELLQNAEELIRMGLHPSEIISGYTKAVSKAVEILEQLVETGSETMDVRNKDEVISRMRAAVASKQFGQEEIICSLVTDACIQVCPKNPTNFNVDNVRVSKLLGGGLHNSCIVRGMVLKSDAVGSIKRMEKAKVAVFAGGVDTTATETKGTVLIHSAEQLENYAKTEEAKVEELIKAVAESGAKVIVSGGSIGEMALHFCERYKIMVLKISSKFELRRFCRTAGAVAHLKLSRPSPEDLGYVDSISVEEIGGVTVTIARNEEGGNSISTVVLRGSTDSILDDLERAVDDGVNTYKAMCRDSRIVPGAAATEIELAQRLKEYANAEIGLDKYAITKYAESFEFVPKTLADNAGLNAMEIIAALYTGHGSGNTKLGIDLEEGACKDVSETKVWDLFATKLFALKYASDAACTVLRVDQIIMAKPAGGPRRDAAQAAGAGAEED
binding: binds

B4: MS2 (protein, UniProt Q9SRV5 1-765)
chain: MASHIVGYPRMGPKRELKFALESFWDGKSSADDLQKVSADLRSDIWKQMSAAGIKYIPSNTFSHYDQVLDTTAMLGAVPSRYGFTSGEIGLDVYFSMARGNASVPAMEMTKWFDTNYHYIVPELGPEVKFSYASHKAVNEYKEAKALGVETVPVLVGPVSYLLLSKLAKGVDKSFDLLSLLPKILPVYKEVIAELKAAGASWIQLDEPLFVMDLEGHKLQAFSGAYAELESTLSGLNVLVETYFADIPAEAYKTLTSLKGVTAFGFDLVRGTKTIDLIKSGFPQGKYLFAGVVDGRNIWANDLAASLITLQSLEGVVGKDKLVVSTSCSLLHTAVDLINETKLDAEIKSWLAFAAQKVVEVDALAKALAGQTNESFFTANADALSSRRSSPRVTNESVQKAAAALKGSDHRRTTEVSARLDAQQKKLNLPILPTTTIGSFPQTVELRRVRREYKAKKISEEDYVKAIKEEIKKVVDIQEDLDIDVLVHGEPERNDMVEYFGEQLSGFAFTANGWVQSYGSRCVKPPVIYGDVSRPKPMTVFWSSTAQSMTKRPMKGMLTGPVTILNWSFVRNDQPRHETCYQIALAIKDEVEDLEKGGIGVIQIDEAALREGLPLRKAEHSFYLDWAVHSFRITNCGVQDSTQIHTHMCYSNFNDIIHSIIDMDADVITIENSRSDEKLLSVFREGVKYGAGIGPGVYDIHSPRIPSTDEIADRINKMLAVLEQNILWVNPDCGLKTRKYTEVKPALKAMVDAAKLIRSQLGSAK
binding: binds

B6: GRF6 (protein, UniProt P48349 1-248)
chain: MAATLGRDQYVYMAKLAEQAERYEEMVQFMEQLVTGATPAEELTVEERNLLSVAYKNVIGSLRAAWRIVSSIEQKEESRKNDEHVSLVKDYRSKVESELSSVCSGILKLLDSHLIPSAGASESKVFYLKMKGDYHRYMAEFKSGDERKTAAEDTMLAYKAAQDIAAADMAPTHPIRLGLALNFSVFYYEILNSSDKACNMAKQAFEEAIAELDTLGEESYKDSTLIMQLLRDNLTLWTSDMQEQMDEA
binding: binds

B7: RHM1 (protein, UniProt Q9SYM5 1-669)
chain: MASYTPKNILITGAAGFIASHVANRLIRSYPDYKIVVLDKLDYCSNLKNLNPSKHSPNFKFVKGDIASADLVNHLLITEGIDTIMHFAAQTHVDNSFGNSFEFTKNNIYGTHVLLEACKVTGQIRRFIHVSTDEVYGETDEDALVGNHEASQLLPTNPYSATKAGAEMLVMAYGRSYGLPVITTRGNNVYGPNQFPEKLIPKFILLAMRGQVLPIHGDGSNVRSYLYCEDVAEAFEVVLHKGEVGHVYNIGTKKERRVNDVAKDICKLFNMDPEANIKFVDNRPFNDQRYFLDDQKLKKLGWSERTTWEEGLKKTMDWYTQNPEWWGDVSGALLPHPRMLMMPGGRHFDGSEDNSLAATLSEKPSQTHMVVPSQRSNGTPQKPSLKFLIYGKTGWIGGLLGKICDKQGIAYEYGKGRLEDRSSLLQDIQSVKPTHVFNSAGVTGRPNVDWCESHKTETIRANVAGTLTLADVCREHGLLMMNFATGCIFEYDDKHPEGSGIGFKEEDTPNFTGSFYSKTKAMVEELLKEYDNVCTLRVRMPISSDLNNPRNFITKISRYNKVVNIPNSMTVLDELLPISIEMAKRNLKGIWNFTNPGVVSHNEILEMYRDYINPEFKWANFTLEEQAKVIVAPRSNNEMDASKLKKEFPELLSIKESLIKYAYGPNKKT
binding: binds

B8: Vacuolar ATP synthase subunit H (protein, UniProt Q9LX65 1-441)
chain: MDQAELSIEQVLKRDIPWETYMNTKLVSAKGLQLLRRYDKKPESARAQLLDEDGPAYVHLFVSILRDIFKEETVEYVLALIYEMLSANPTRARLFHDESLANEDTYEPFLRLLWKGNWFIQEKSCKILAWIISARPKAGNAVIGNGIDDVLKGLVEWLCAQLKQPSHPTRGVPIAISCLSSLLKEPVVRSSFVQADGVKLLVPLISPASTQQSIQLLYETCLCIWLLSYYEPAIEYLATSRTMQRLTEVVKHSTKEKVVRVVILTFRNLLPKGTFGAQMVDLGLPHIIHSLKTQAWSDEDLLDALNQLEEGLKDKIKKLSSFDKYKQEVLLGHLDWNPMHKETNFWRENVTCFEENDFQILRVLLTILDTSSDPRSLAVACFDISQFIQYHAAGRVIVADLKAKERVMKLINHENAEVTKNAILCIQRLLLGAKYASFLQA
binding: binds

Second part, the binder after the results:

binding: binds
B1: CYCLING DOF FACTOR 3 (CDF3) (protein, UniProt Q8LFV3 1-448)
chain: MMMETRDPAIKLFGMKIPFPSVFESAVTVEDDEEDDWSGGDDKSPEKVTPELSDKNNNNCNDNSFNNSKPETLDKEEATSTDQIESSDTPEDNQQTTPDGKTLKKPTKILPCPRCKSMETKFCYYNNYNINQPRHFCKACQRYWTAGGTMRNVPVGAGRRKNKSSSSHYRHITISEALEAARLDPGLQANTRVLSFGLEAQQQHVAAPMTPVMKLQEDQKVSNGARNRFHGLADQRLVARVENGDDCSSGSSVTTSNNHSVDESRAQSGSVVEAQMNNNNNNNMNGYACIPGVPWPYTWNPAMPPPGFYPPPGYPMPFYPYWTIPMLPPHQSSSPISQKCSNTNSPTLGKHPRDEGSSKKDNETERKQKAGCVLVPKTLRIDDPNEAAKSSIWTTLGIKNEAMCKAGGMFKGFDHKTKMYNNDKAENSPVLSANPAALSRSHNFHEQI

binding: binds
B2: HAP13 (protein, UniProt O22715 1-428)
chain: MAGAASALFLLDIKGRVLVWRDYRGDVSAAQAERFFTKLIEKEGDSQSNDPVAYDNGVTYMFVQHSNVYLMIASRQNCNAASLLFFLHRVVDVFKHYFEELEEESLRDNFVVVYELLDEMMDFGYPQYTEARILSEFIKTDAYRMEVTQRPPMAVTNAVSWRSEGIQYKKNEVFLDVIENVNILVNSNGQIVRSDVVGALKMRTYLTGMPECKLGLNDRVLLEAQGRATKGKAIDLEDIKFHQCVRLARFENDRTISFIPPDGAFDLMTYRLSTQVKPLIWVEAQIESHSRSRVEMLIKARSQFKERSTATNVEIELPVPTDASNPTVRTSLGSASYAPEKDALVWKIKSFPGNKEYMLRAEFHLPSITAEEATPERKAPIRVKFEIPYFTVSGIQVRYLKIIEKSGYQALPWVRYITMAGEYELRLV

binding: binds
B5: ALDH3F1 (protein, UniProt Q70E96 1-484)
chain: MEAMKETVEESLREMRETFASGRTRSLKWRKAQIGAIYEMVKDNEDKICNALFQDLGKHSTEAFRDELGVVLRTATVAINCLDKWAVPKHSKLPLLFYPAKGKVISEPYGTVLVLSSWNFPISLSLDPLIGAIAAGNTVLLKSSELSPNASAFLAKTIPAYLDTKAIKVIEGGPDVATILLQHQWDKIFFTGSPKIGRIIMAAAAQHLTPVTLELGGKCPTIVDHHTISKNIKSVVKRIAGGKWGSCNGQACISVDYVLIEKSFAPTLIDMLKPTIKSFFGENPKESGCLSRIANKHHVQRLSRLLSDPRVQASIVYGGSIDEDKLYVEPTILLDPPLDSEIMNEEIFGPILPIITVRDIQESIGIINTKPKPLAIYAFTNDENLKTRILSETSSGSVTFNDVMIQYMCDALPFGGVGESGIGRYHGKYSFDCFSHEKAIMEGSLGMDLEARYPPWNNFKLTFIRLAFREAYFKLILLMLGLKR
